{
  "source": "PubChem BioAssay AID1347423",
  "about": "(Functional Genomics Laboratory (NCATS/FGL), 2020)",
  "note": "About 210 (0.4%) of roughly 52,000 sequences were called active.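 The calls were made as follows: active = gene whose silencing raises cell survival under the drug, median off-target-corrected z-score across its silencing RNAs 2 or more; inactive = the rest.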 The list shows a part of the results.",
  "data": [
    {"experiment": "Resistance to Poly (ADP-Ribose) Polymerase inhibitor: Gene Identification via Genome-wide siRNA Screen", "details": "mouse BRCA2 R2336H ES cells, olaparib, CellTiter-Glo viability; active compounds read high", "method_in_brief": "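Mouse BRCA2 R2336H ES cells were reverse-transfected with siRNA (20 nM final), treated at 48 h with 500 nM olaparib, and read by CellTiter-Glo after 72 h. Scores: MAD-based z per siRNA, median per gene, seed off-target correction.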", "values": [
      {"sequence": "GGUACUACGACCAUCUCCUTT against Tnfrsf13b", "z-score": "inactive: 0.104"},
      {"sequence": "GGUAUAGUGGAAGAAUACCTT against Bmpr1b", "z-score": "inactive: 0.0142"},
      {"sequence": "CCCAAUGGCAAUUUUUAGATT against BC026439", "z-score": "inactive: -0.13"},
      {"sequence": "UUCAUGUAGGGUGUCUCUUTT against Olfr180", "z-score": "inactive: 0.0111"},
      {"sequence": "GCAAAAACCUAUAGGAAAATT against Srpk2", "z-score": "inactive: 1.35"},
      {"sequence": "GCACACAACUGGUAGUUUUTT against Chst1", "z-score": "inactive: 0.39"},
      {"sequence": "CGUUGAACUAGCAGUGGACTT against 1110018G07Rik", "z-score": "inactive: -1.24"},
      {"sequence": "CCAUCAUCGAUGUGCCCUATT against Olfr355", "z-score": "inactive: -0.681"},
      {"sequence": "GGAAUUCCGAAUAUUCCAGTT against AU067695", "z-score": "inactive: 0.695"},
      {"sequence": "GGAGACCUCCUUUUCCAUUTT against Slc41a1", "z-score": "inactive: -1.19"},
      {"sequence": "GCAGUGGACUUUUUCUUAGTT against Nptx1", "z-score": "inactive: 0.818"},
      {"sequence": "GCAUCAAGCAGAAAAGAGGTT against LOC432825", "z-score": "inactive: 1.35"},
      {"sequence": "GGAUGAAAUUGUGUUAUCUTT against Snrk", "z-score": "inactive: 0.968"},
      {"sequence": "GCUUACCUGGUCUUGGGCATT against Wbscr18", "z-score": "inactive: 0.317"},
      {"sequence": "GUGGAAAAUUGAAGGGACGTT against Ndufb3", "z-score": "inactive: 0.0701"},
      {"sequence": "GGACAAAUUGGUAGGAGGATT against 4732467B22", "z-score": "inactive: 0.197"},
      {"sequence": "GGCUAAAGUGAGCUCUUCATT against 1700021I09Rik", "z-score": "inactive: -0.282"},
      {"sequence": "CCGUCAUCCGAGCAAUCAGTT against Kcnq5", "z-score": "inactive: 1.07"},
      {"sequence": "GGGACUCUUGUUGGAUCCATT against Htr1d", "z-score": "inactive: 0.588"},
      {"sequence": "GCCACUUCCGGCCUUUUUATT against Zfp422", "z-score": "inactive: 0.155"},
      {"sequence": "GGUACUGUGCCUAGCCUUATT against Adrb2", "z-score": "inactive: -0.318"},
      {"sequence": "GCACCUAUACCGCCGUAUCTT against Agpat3", "z-score": "inactive: -0.812"},
      {"sequence": "GGACUAUGAACCUACCAAATT against Rala", "z-score": "inactive: 0.516"},
      {"sequence": "CGCAUUCUAUUACUGUUACTT against Stxbp3", "z-score": "inactive: -0.00813"},
      {"sequence": "GGAAAGGAACAGAAAAGAATT against Odz2", "z-score": "inactive: 1.28"},
      {"sequence": "GGUGGAACUUCUAUACAAATT against Thbs1", "z-score": "inactive: 0.388"},
      {"sequence": "CGCGUACAGAAGCAGUUAGTT against AW555464", "z-score": "inactive: 1.71"},
      {"sequence": "GGGAUCAAUGUCAUCCUUUTT against Nif3l1", "z-score": "inactive: 0.347"},
      {"sequence": "GCUGACGACGCGGCCUUUCTT against Tifp39", "z-score": "inactive: -1.18"},
      {"sequence": "GCUAUCCGGAAAGCGAUCATT against Anxa3", "z-score": "inactive: -1.19"},
      {"sequence": "GGACCAAGAGGACAUUACCTT against Tbl3", "z-score": "inactive: -1.5"},
      {"sequence": "GCUUAUGAGGCUCAGCAUUTT against Pigh", "z-score": "inactive: -0.496"},
      {"sequence": "GCUCUGAUUCAUUACUAUUTT against Mansc1", "z-score": "inactive: -0.000872"},
      {"sequence": "CCACUCACAACAGUACUACTT against Tcfap2d", "z-score": "inactive: -0.861"},
      {"sequence": "GGAGAGUUUAUCAGACAGUTT against Shmt2", "z-score": "inactive: 2.44"},
      {"sequence": "GGAUGUUGGUAGACUUCUUTT against Olfr732", "z-score": "inactive: -0.691"},
      {"sequence": "GCACUAAGCUUUAUUCAUCTT against Mast2", "z-score": "inactive: -0.0778"},
      {"sequence": "GGCUGAAAAUUCCAGACUGTT against Ka35", "z-score": "inactive: -1.2"},
      {"sequence": "GACAGUUACCAACUUCUACTT against Gpr54", "z-score": "inactive: 0.478"},
      {"sequence": "GGGUGAAGAAUCUUUUUGUTT against Olfr676", "z-score": "inactive: 0.172"},
      {"sequence": "GCCUAACCUGGUAUCCCAGTT against Zfp92", "z-score": "inactive: 0.793"},
      {"sequence": "GGGACUUUCCCACUCAAAATT against Olfr1295", "z-score": "inactive: 2.53"},
      {"sequence": "GCAGGUUCGAAAAUCAAUGTT against Upf3b", "z-score": "inactive: 0.157"},
      {"sequence": "GGCUGAAGGGCUCUACAAATT against E430021N18Rik", "z-score": "inactive: -1.6"},
      {"sequence": "GUAUAGUGUAUCUCAUCAUTT against Olfr1107", "z-score": "inactive: 2.32"},
      {"sequence": "GGUGGAAUAACAGAUAAAATT against Cutc", "z-score": "inactive: -0.391"},
      {"sequence": "GGUCUUAAUCUCAGGAUGATT against Car5a", "z-score": "inactive: 2.17"},
      {"sequence": "GGGAAAUCACAAUUCCUUATT against Mcmdc1", "z-score": "inactive: -1.36"},
      {"sequence": "GGAACUGGUAAAUUUGUAATT against 5730446C15Rik", "z-score": "inactive: -0.237"},
      {"sequence": "GGUACAGUACAUUGACCUATT against Adck5", "z-score": "inactive: -0.319"},
      {"sequence": "GGUGUUCUGGAAGAAGAAATT against Thoc1", "z-score": "inactive: -1.92"},
      {"sequence": "GGUUUUUGACAACUUUCUGTT against Fxyd4", "z-score": "inactive: 0.549"},
      {"sequence": "GGAUGAUGAAUGCAAUUAATT against Eed", "z-score": "inactive: 0.853"},
      {"sequence": "CGAACACCGGUUACAAACUTT against 2010001J22Rik", "z-score": "inactive: 0.534"},
      {"sequence": "CCUAUUUUGGUAAGAUAGATT against Rasl12", "z-score": "inactive: -0.481"},
      {"sequence": "GGCUGUGCUCAGGAUCAAATT against Olfr683", "z-score": "inactive: 2.34"},
      {"sequence": "CCUACUUCCGAGGUUUCUUTT against Lmtn", "z-score": "inactive: 0.098"},
      {"sequence": "GCGAGCGGUUGACUUGUGUTT against Ftsj1", "z-score": "inactive: 0.529"},
      {"sequence": "GCAUCUUAGGCAUUGCUAGTT against Pcna", "z-score": "inactive: -2.62"},
      {"sequence": "GGUCUCAUCGCUUGAUACUTT against Pcdhgb6", "z-score": "inactive: -0.666"},
      {"sequence": "GGGUUCAAGAGAUGAUAUUTT against Usp11", "z-score": "active: 2.47"},
      {"sequence": "GGACCUACUACGUAAACCATT against Nedd4", "z-score": "inactive: -0.288"},
      {"sequence": "GCAGGAAGAAUGUUUUUCUTT against LOC626846", "z-score": "inactive: -0.452"},
      {"sequence": "GGAACAGUACCUUUUUGUGTT against Dnase1", "z-score": "inactive: -0.412"},
      {"sequence": "CCCUCGUUGAAUUAAACUUTT against Zfp533", "z-score": "inactive: 0.0132"},
      {"sequence": "CCUCUGUUGAACCAUCAUUTT against Gpr21", "z-score": "inactive: -1.66"},
      {"sequence": "GGUACCUCUUCUCCUAAAGTT against Vps16", "z-score": "inactive: 0.283"}
    ]}
  ]
}
